42 sequences from paper PMC7819943, “Rice protein-binding microarrays: a tool to detect cis-acting elements near promoter regions in rice” can be followed below.

Amino acid sequences for entries named in this document (tags omitted).
UniProt Q0JBA9, entry or part of it: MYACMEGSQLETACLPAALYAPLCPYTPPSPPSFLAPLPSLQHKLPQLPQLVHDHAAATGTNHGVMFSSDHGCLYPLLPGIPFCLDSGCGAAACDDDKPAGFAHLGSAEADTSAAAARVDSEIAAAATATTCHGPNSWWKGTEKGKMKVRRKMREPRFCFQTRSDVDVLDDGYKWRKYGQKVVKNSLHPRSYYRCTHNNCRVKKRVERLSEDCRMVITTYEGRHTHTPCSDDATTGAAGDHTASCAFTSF

This is one part of the list.

This assay deals with OsWRKY34 (Oryza sativa, UniProt Q0JBA9 1-250). The experiment in a line: protein-binding microarray (RPBM); PBS, 2% BSA, 51.3 ng/ul salmon testes DNA, 50 uM zinc acetate, 200 nM TF, 25 C, 1 h; high values mean tight binding. As to conditions: protein: recombinant; tags: N-terminal polyhistidine and DsRed monomer fusion (pET32a); label: CyDye5-dUTP incorporated in the synthesized complementary strand; 3' TTTTT single-stranded linker to array surface; dsDNA, one strand shown. In short, it runs like this:
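A custom Agilent array was converted to double-stranded form by primer extension with Cy5-dUTP and blocked with 2% BSA. Protein at 200 nM in PBS with 2% BSA, salmon testes DNA and 50 µM zinc acetate was applied for 1 h at 25 °C, followed by washing. The proteins were polyhistidine–DsRed N-terminal fusions of transcription factors, expressed in E. coli BL21-CodonPlus and Ni–NTA-purified. The binding signal is per-feature fluorescence intensity (arbitrary units) from an Axon 4000B scanner.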
With “GCCAACTCTCTTTACTATTTAGGGTGTGTTTAGTTCACACCGGAGTCACCTAGTGCAG”, the binding signal is 8400 fluorescence intensity (a.u.).

Consider “CGTTGTTTTCATGATTGTCACCATATGTGGTCTGCATTATCGGAGTCACCTAGTGCAG”, for which the binding signal is 8980 fluorescence intensity (a.u.).

Regarding “AAAAGGCGTTTGCTTGTTTTTGCTGTGGGTTAATTCGCCTCGGAGTCACCTAGTGCAG”, the binding signal was 8090 fluorescence intensity (a.u.).

“CATTCACCGCAACACGCGTGTGTTTTTTGATCGATTCAATCGGAGTCACCTAGTGCAG”: the binding signal was 10400 fluorescence intensity (a.u.).

For the sequence “TCTAGCTAACCATGCCGGCATGCCCAATAATGCTGTTCCACGGAGTCACCTAGTGCAG”, the binding signal is 8980 fluorescence intensity (a.u.).

For “TGGTTCCTTTTGTATGTGATCGCTCTGTACTTACATTCGTCGGAGTCACCTAGTGCAG”, the binding signal was 8030 fluorescence intensity (a.u.).

For the sequence “TTTACTTTTTTTCTCCTTTCTTATCCCTTTTTTTCTCCTTCGGAGTCACCTAGTGCAG”, the binding signal is 11200 fluorescence intensity (a.u.).

Regarding “GATCGACCCGAGCTCCTTCCGCCTTGCTCTCTCACCGACGCGGAGTCACCTAGTGCAG”, the binding signal was 8660 fluorescence intensity (a.u.).

As for “ACACGGCATGTGTTGGGTGGTAGTAGATGGGTTTAGTTGGCGGAGTCACCTAGTGCAG”, the binding signal was 8280 fluorescence intensity (a.u.).

On to “GTAAGTGTAATTCCTTTCTACTCCCTCGTTTTAGGTTACACGGAGTCACCTAGTGCAG”, for which the binding signal is 11100 fluorescence intensity (a.u.).

With “GAGAGAGAGAGAGAGTCCACGCATCCCGCGCGCCTCCTTTCGGAGTCACCTAGTGCAG”, the binding signal is 10800 fluorescence intensity (a.u.).

As to “CTCTGTTGGTTTCTTGCGGTTTTGATTATTTGTTTGTGGTCGGAGTCACCTAGTGCAG”, the binding signal is 11900 fluorescence intensity (a.u.).

Take “ATTAATGGCAAAAGTTCACAAACTTTGACTTTTGAAACGCCGGAGTCACCTAGTGCAG”: the binding signal is 9750 fluorescence intensity (a.u.).

Take “GACCTTTCCAGACTCCGTTGCAATTCATCTCTCACCACCCCGGAGTCACCTAGTGCAG”: the binding signal is 8820 fluorescence intensity (a.u.).

Take “GAAATACATGCATCACATCCCACGACGTCGCCGCCGATCGCGGAGTCACCTAGTGCAG”: the binding signal was 11200 fluorescence intensity (a.u.).

As to “GTGAAGATTTCTGGTATTAGGGATTAGGGATGTCATACTGCGGAGTCACCTAGTGCAG”, the binding signal is 8990 fluorescence intensity (a.u.).

With “GGAGAGAATTCCCTCTACGTAGATCCAGTCCAAAACTGAACGGAGTCACCTAGTGCAG”, the binding signal is 12700 fluorescence intensity (a.u.).

For the sequence “GGAAGCATGATCGGGAGGTTTTAGGAAAGATGGCTAATTACGGAGTCACCTAGTGCAG”, the binding signal was 8810 fluorescence intensity (a.u.).

For the sequence “GTAGTGGATTATCGAGCCCCTGTTGTTCCATGAGGATCCGCGGAGTCACCTAGTGCAG”, the binding signal was 8310 fluorescence intensity (a.u.).

In the case of “TTTGCCCGTGTCATCACGCTTCCATCAGTATCACGCGTTCCGGAGTCACCTAGTGCAG”, the binding signal was 13500 fluorescence intensity (a.u.).

Consider “CACCCAAACCCTAGCAACCTCACGCCGCCACCTCCCTCGCCGGAGTCACCTAGTGCAG”, for which the binding signal was 8670 fluorescence intensity (a.u.).

Turning to “TACTCTATACTCTATTTCTAATATTCCTTATTTTTAATTCCGGAGTCACCTAGTGCAG”, the binding signal is 10300 fluorescence intensity (a.u.).

For the sequence “ATTCCAGTCCTCTCCATGGTAGTCAACGTCAATTTCTCACCGGAGTCACCTAGTGCAG”, the binding signal was 8440 fluorescence intensity (a.u.).

Consider “TGCCACCGCCGGCGCCTCTTCCGCTGAATCCATCTCCACCCGGAGTCACCTAGTGCAG”, for which the binding signal is 9920 fluorescence intensity (a.u.).

In the case of “TCTTGTTTTTTGCACGCGTGTTTCCCGAATACGTATTTTACGGAGTCACCTAGTGCAG”, the binding signal was 10500 fluorescence intensity (a.u.).

Turning to “ACCTGGCCCAACTCCCCGTTTTCCCATGGTAACGATAGCCCGGAGTCACCTAGTGCAG”, the binding signal was 8020 fluorescence intensity (a.u.).

Take “AATAGTTTCCCGTCGATCATGTTCTAATGTTTTTCCTTGTCGGAGTCACCTAGTGCAG”: the binding signal is 8370 fluorescence intensity (a.u.).

As to “GTGATAAAGGCTCGTTGTTTTGGTTATGCTTATTTTTATACGGAGTCACCTAGTGCAG”, the binding signal is 14600 fluorescence intensity (a.u.).

As for “GCTCGCCGAATCGCTTTTTATTTTTCTCTCTCCAACCCTACGGAGTCACCTAGTGCAG”, the binding signal is 8170 fluorescence intensity (a.u.).

Regarding “ATCCTATCCTACGTGTCATATGCTCCACATCAGCGAGCGGCGGAGTCACCTAGTGCAG”, the binding signal is 9000 fluorescence intensity (a.u.).

As to “ACTCTCCAAATCCATCCATCGATCGAGAATTCCTCTTCTCCGGAGTCACCTAGTGCAG”, the binding signal was 10600 fluorescence intensity (a.u.).

As to “ATTCTCCCCTGCGCCGCCGCCGCCGCCGCCGCCTCAATCGCGGAGTCACCTAGTGCAG”, the binding signal was 8090 fluorescence intensity (a.u.).

As to “AAAACGCGTCGGCTCTCGAACCTTCTTGCATTGTGTCGTCCGGAGTCACCTAGTGCAG”, the binding signal is 9150 fluorescence intensity (a.u.).

“CTGTCTTCACCGTGCCGCTCCTTTCCTTCCATTTCATCTCCGGAGTCACCTAGTGCAG”: the binding signal is 8440 fluorescence intensity (a.u.).

For the sequence “CATCTCGTGCTTGTATCCTTGTTCTTCATCTTCTCTCACCCGGAGTCACCTAGTGCAG”, the binding signal is 10400 fluorescence intensity (a.u.).

Turning to “CCCTAACACCCAGACCAGAATCAGCAGAAGCTGTCCTATTCGGAGTCACCTAGTGCAG”, the binding signal was 8130 fluorescence intensity (a.u.).

“CCGTCCTCATCCATCCTAACCACCACCTTCTTATAAATTACGGAGTCACCTAGTGCAG”: the binding signal is 9380 fluorescence intensity (a.u.).

With “CTGTTACTTCTTTTCTACTGACGTTGATTTAAAATTTTATCGGAGTCACCTAGTGCAG”, the binding signal was 8980 fluorescence intensity (a.u.).

For the sequence “GCCGCCACCGCAACATTCTCATTTCTCTCTCTCGTCCCCGCGGAGTCACCTAGTGCAG”, the binding signal was 8900 fluorescence intensity (a.u.).

In the case of “ATTTTTTCTTATCTCTCACTCGATTTTCTCACTAAAATTTCGGAGTCACCTAGTGCAG”, the binding signal was 12400 fluorescence intensity (a.u.).

On to “TACCTGTTTTGAGCTCTTTTTCAGAAATTTCTTCTTATCTCGGAGTCACCTAGTGCAG”, for which the binding signal was 11200 fluorescence intensity (a.u.).

For “CCTCCCACTTCGAATTATTTATTTTTGGGAATATTTTTCTCGGAGTCACCTAGTGCAG”, the binding signal is 10800 fluorescence intensity (a.u.).
